Laboratory results taken from article PMC9103046.

Target: T1, St13 (mouse (endogenous in pancreatic acinar cells of PRSS1Tg mice)) (UniProt Q99L47)
T1 sequence: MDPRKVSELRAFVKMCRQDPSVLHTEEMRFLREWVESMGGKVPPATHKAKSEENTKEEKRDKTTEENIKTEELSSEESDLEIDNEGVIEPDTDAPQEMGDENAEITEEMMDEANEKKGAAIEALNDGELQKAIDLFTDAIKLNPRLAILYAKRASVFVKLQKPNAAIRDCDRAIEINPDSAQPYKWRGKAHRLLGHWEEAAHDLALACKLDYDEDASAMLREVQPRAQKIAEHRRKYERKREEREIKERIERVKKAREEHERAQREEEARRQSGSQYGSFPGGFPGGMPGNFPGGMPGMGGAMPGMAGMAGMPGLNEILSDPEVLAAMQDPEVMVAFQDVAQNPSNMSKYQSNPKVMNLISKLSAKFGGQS
Test: affinity purification with mass spectrometry; co-IP of St13 from pancreatic acinar cells of PRSS1Tg mice (untreated group A, ethanol-treated group B, IgG group C); SDS-PAGE, silver staining, trypsin digest, mass spectrometry with DIA quantification

B1: Stromal cell-derived factor 2-like 1 (Sdf2l1) (protein, UniProt Q9ESP1 29-221)
chain: SKASAGLVTCGSVLKLLNTHHKVRLHSHDIKYGSGSGQQSVTGVEESDDANSYWRIRGGSEGGCPRGLPVRCGQAVRLTHVLTGKNLHTHHFPSPLSNNQEVSAFGEDGEGDDLDLWTVRCSGQHWEREASVRFQHVGTSVFLSVTGEQYGNPIRGQHEVHGMPSANAHNTWKAMEGIFIKPGADLSTGHDEL
- binding: binds

These are yes or no findings as the source states them, for the method shown. Binding seen in cells or lysates may run through a third protein. A yes stands for co-enrichment or nearness to the bait. Other partners may have been found.
